Reference: paper PMC12860897
No constants are given. Whether binding was seen depends on the method and setting. In cells and extracts the contact can be indirect. Some results given as binding are weak or reduced against the parent protein; the word gives no strength. For some assays here: Sequences can lack the tags named with a protein.

Chains of the proteins cited; added tags and fusions are not shown.
UniProt P03372: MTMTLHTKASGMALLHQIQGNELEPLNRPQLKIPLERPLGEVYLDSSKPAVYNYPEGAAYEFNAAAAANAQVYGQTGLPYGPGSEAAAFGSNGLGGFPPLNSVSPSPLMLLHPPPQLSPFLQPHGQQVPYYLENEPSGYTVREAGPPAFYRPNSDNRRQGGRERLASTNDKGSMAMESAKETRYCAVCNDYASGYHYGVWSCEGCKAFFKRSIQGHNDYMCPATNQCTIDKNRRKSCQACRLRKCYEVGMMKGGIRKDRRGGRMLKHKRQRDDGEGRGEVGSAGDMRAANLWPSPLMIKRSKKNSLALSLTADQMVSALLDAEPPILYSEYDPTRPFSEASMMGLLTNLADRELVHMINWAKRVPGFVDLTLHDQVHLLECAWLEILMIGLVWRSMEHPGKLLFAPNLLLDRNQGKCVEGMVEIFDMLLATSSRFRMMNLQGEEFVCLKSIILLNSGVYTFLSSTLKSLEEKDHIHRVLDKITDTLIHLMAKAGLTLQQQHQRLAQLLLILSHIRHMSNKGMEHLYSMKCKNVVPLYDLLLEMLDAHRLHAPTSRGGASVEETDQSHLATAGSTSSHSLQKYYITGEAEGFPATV
UniProt P19785: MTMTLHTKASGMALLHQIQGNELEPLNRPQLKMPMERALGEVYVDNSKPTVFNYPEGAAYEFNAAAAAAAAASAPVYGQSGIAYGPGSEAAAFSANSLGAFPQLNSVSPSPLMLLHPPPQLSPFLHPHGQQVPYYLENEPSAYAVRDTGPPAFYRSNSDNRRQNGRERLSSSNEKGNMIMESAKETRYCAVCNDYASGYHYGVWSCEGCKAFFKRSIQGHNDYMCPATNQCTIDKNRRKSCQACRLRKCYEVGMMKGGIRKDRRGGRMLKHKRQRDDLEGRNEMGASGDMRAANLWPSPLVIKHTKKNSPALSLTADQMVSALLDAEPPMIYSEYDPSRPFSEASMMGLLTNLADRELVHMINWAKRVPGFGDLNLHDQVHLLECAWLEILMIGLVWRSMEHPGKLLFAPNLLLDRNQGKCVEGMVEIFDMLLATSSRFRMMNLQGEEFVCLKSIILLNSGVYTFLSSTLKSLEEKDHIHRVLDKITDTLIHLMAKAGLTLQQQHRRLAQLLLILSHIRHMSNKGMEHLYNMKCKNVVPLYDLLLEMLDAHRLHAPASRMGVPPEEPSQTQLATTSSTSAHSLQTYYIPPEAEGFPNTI
UniProt Q9UNE7: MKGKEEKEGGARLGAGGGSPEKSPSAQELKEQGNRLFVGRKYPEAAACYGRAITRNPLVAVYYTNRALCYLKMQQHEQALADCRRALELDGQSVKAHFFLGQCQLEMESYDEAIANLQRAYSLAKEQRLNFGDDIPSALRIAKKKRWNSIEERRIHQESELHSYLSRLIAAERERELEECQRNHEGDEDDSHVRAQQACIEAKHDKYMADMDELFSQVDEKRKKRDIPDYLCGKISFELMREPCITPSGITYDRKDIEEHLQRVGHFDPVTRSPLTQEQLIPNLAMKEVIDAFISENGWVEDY
UniProt Q93009: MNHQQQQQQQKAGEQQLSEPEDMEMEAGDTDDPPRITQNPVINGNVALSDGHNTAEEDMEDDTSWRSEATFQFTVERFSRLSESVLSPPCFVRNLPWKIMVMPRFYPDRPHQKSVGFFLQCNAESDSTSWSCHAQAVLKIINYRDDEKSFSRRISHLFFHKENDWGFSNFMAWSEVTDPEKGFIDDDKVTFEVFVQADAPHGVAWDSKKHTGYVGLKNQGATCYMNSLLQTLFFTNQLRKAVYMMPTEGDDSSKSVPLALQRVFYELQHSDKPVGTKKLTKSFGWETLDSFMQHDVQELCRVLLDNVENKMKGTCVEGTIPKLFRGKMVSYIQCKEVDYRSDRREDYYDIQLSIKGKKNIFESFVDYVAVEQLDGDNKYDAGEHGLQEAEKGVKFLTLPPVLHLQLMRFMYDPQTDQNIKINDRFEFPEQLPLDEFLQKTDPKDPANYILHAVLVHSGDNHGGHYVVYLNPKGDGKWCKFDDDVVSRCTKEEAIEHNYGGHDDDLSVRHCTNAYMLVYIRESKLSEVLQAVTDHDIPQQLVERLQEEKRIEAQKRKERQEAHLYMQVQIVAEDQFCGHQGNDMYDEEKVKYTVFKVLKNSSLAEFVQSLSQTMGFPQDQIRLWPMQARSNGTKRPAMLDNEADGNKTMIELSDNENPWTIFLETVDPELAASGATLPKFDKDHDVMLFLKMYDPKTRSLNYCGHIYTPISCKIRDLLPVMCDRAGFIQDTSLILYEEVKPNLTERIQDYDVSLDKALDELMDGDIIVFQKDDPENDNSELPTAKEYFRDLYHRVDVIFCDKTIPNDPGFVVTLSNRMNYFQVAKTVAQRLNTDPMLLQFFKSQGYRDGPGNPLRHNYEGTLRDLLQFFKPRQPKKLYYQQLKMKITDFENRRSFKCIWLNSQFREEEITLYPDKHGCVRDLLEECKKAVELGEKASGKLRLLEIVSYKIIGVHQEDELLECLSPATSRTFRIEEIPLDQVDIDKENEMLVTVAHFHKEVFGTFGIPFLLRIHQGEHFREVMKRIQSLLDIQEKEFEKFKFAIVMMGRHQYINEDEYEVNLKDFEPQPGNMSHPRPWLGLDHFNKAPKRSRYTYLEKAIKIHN

B1: MYC-HSD17B7 (enzyme, UniProt P56937 1-341)
chain: MRKVVLITGASSGIGLALCKRLLAEDDELHLCLACRNMSKAEAVCAALLASHPTAEVTIVQVDVSNLQSVFRASKELKQRFQRLDCIYLNAGIMPNPQLNIKALFFGLFSRKVIHMFSTAEGLLTQGDKITADGLQEVFETNVFGHFILIRELEPLLCHSDNPSQLIWTSSRSARKSNFSLEDFQHSKGKEPYSSSKYATDLLSVALNRNFNQQGLYSNVACPGTALTNLTYGILPPFIWTLLMPAILLLRFFANAFTLTPYNGTEALVWLFHQKPESLNPLIKYLSATTGFGRNYIMTQKMDLDEDTAEKFYQKLLELEKHIRVTIQKTDNQARLSGSCL
B2: HSD17B7 d119-172 (deletion mutant of HSD17B7-MYC) (enzyme, UniProt P56937)
chain: MRKVVLITGASSGIGLALCKRLLAEDDELHLCLACRNMSKAEAVCAALLASHPTAEVTIVQVDVSNLQSVFRASKELKQRFQRLDCIYLNAGIMPNPQLNIKALFFGLFSRKVIHMFSSARKSNFSLEDFQHSKGKEPYSSSKYATDLLSVALNRNFNQQGLYSNVACPGTALTNLTYGILPPFIWTLLMPAILLLRFFANAFTLTPYNGTEALVWLFHQKPESLNPLIKYLSATTGFGRNYIMTQKMDLDEDTAEKFYQKLLELEKHIRVTIQKTDNQARLSGSCL
B3: HSD17B7 d5-45 (deletion mutant of HSD17B7-MYC) (enzyme, UniProt P56937)
chain: MRKVAALLASHPTAEVTIVQVDVSNLQSVFRASKELKQRFQRLDCIYLNAGIMPNPQLNIKALFFGLFSRKVIHMFSTAEGLLTQGDKITADGLQEVFETNVFGHFILIRELEPLLCHSDNPSQLIWTSSRSARKSNFSLEDFQHSKGKEPYSSSKYATDLLSVALNRNFNQQGLYSNVACPGTALTNLTYGILPPFIWTLLMPAILLLRFFANAFTLTPYNGTEALVWLFHQKPESLNPLIKYLSATTGFGRNYIMTQKMDLDEDTAEKFYQKLLELEKHIRVTIQKTDNQARLSGSCL
B4: HSD17B7 d192-200 (deletion mutant of HSD17B7-MYC) (enzyme, UniProt P56937)
chain: MRKVVLITGASSGIGLALCKRLLAEDDELHLCLACRNMSKAEAVCAALLASHPTAEVTIVQVDVSNLQSVFRASKELKQRFQRLDCIYLNAGIMPNPQLNIKALFFGLFSRKVIHMFSTAEGLLTQGDKITADGLQEVFETNVFGHFILIRELEPLLCHSDNPSQLIWTSSRSARKSNFSLEDFQHSKGKEDLLSVALNRNFNQQGLYSNVACPGTALTNLTYGILPPFIWTLLMPAILLLRFFANAFTLTPYNGTEALVWLFHQKPESLNPLIKYLSATTGFGRNYIMTQKMDLDEDTAEKFYQKLLELEKHIRVTIQKTDNQARLSGSCL
B5: HSD17B7 d274-302 (deletion mutant of HSD17B7-MYC) (enzyme, UniProt P56937)
chain: MRKVVLITGASSGIGLALCKRLLAEDDELHLCLACRNMSKAEAVCAALLASHPTAEVTIVQVDVSNLQSVFRASKELKQRFQRLDCIYLNAGIMPNPQLNIKALFFGLFSRKVIHMFSTAEGLLTQGDKITADGLQEVFETNVFGHFILIRELEPLLCHSDNPSQLIWTSSRSARKSNFSLEDFQHSKGKEPYSSSKYATDLLSVALNRNFNQQGLYSNVACPGTALTNLTYGILPPFIWTLLMPAILLLRFFANAFTLTPYNGTEALVWLFHDLDEDTAEKFYQKLLELEKHIRVTIQKTDNQARLSGSCL
B6: 17β-hydroxysteroid dehydrogenase type 7 (HSD17B7), endogenous in mouse CD11b+ bone marrow cells (enzyme, UniProt O88736 1-334)
chain: MRKVVLITGASSGIGLALCGRLLAEDDDLHLCLACRNLSKARAVRDTLLASHPSAEVSIVQMDVSSLQSVVRGAEEVKQKFQRLDYLYLNAGILPNPQFNLKAFFCGIFSRNVIHMFTTAEGILTQNDSVTADGLQEVFETNLFGHFILIRELEPLLCHADNPSQLIWTSSRNAKKANFSLEDIQHSKGPEPYSSSKYATDLLNVALNRNFNQKGLYSSVMCPGVVMTNMTYGILPPFIWTLLLPIMWLLRFFVNALTVTPYNGAEALVWLFHQKPESLNPLTKYASATSGFGTNYVTGQKMDIDEDTAEKFYEVLLELEKRVRTTVQKSDHPS

Experiments:
HA-ERα [1] = target: HA-ERα (UniProt P03372); experiment: co-IP; HEK293T cells transfected with ERα, HSD17B7 or shHSD17B7; immunoprecipitation with ERα antibody, blot for CHIP or USP7
HA-ERα [2] = target: HA-ERα (UniProt P03372); experiment: co-IP; HEK293T cells cotransfected with HA-ERα and MYC-HSD17B7 (WT or deletion mutant); 400 µg homogenate precipitated with anti-HA or anti-MYC antibody at 4°C overnight, protein A/G agarose, immunoblot
[3] = target: Estrogen receptor (ER) α, endogenous in mouse CD11b+ bone marrow cells (mouse (endogenous in CD11b+ BMCs)) (UniProt P19785); experiment: co-IP; CD11b+ Control/cKO BMCs (preosteoclasts) treated with raloxifene (RAL); co-IP and immunoblot of endogenous proteins

| Molecule | binding (HA-ERα [2]) | other results |
| --- | --- | --- |
| carboxyl terminus of Hsc70-interacting protein (CHIP) (from UniProt Q9UNE7 1-303) (enzyme) |  | binding (HA-ERα [1]): binds |
| ubiquitin-specific protease 7 (USP7) (from UniProt Q93009 1-1102) (enzyme) |  | binding (HA-ERα [1]): binds |
| B1 | binds |  |
| B2 | binds |  |
| B3 | binds |  |
| B4 | binds |  |
| B5 | binds |  |
| B6 |  | binding [3]: binds |
